Values from PubChem BioAssay AID602196 (INSERM, 2012).
Test: 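Modifiers of cisplatin sensitivity in A549 cells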. System: human A549 lung cancer cells. Reagents: siRNA pair against human genes. Timing: 48 h transfection before cisplatin; time from cisplatin to read-out not stated. Treatment: cisplatin at a dose killing half of control-siRNA cells; exact dose and duration not given. Measured: 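Shift in cisplatin death relative to control siRNA, from -50 (all cells die) to +50 (no cells die); siRNAs harmful on their own scored 0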. Scale: two-siRNA summed score (-2 to +2): higher = both siRNAs protect from cisplatin killing; -2 means both sensitise. Hit rule: 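Each siRNA scores 0 if harmful alone by LDH or WST-1, otherwise +1 if it reduces and -1 if it increases cisplatin killing; a gene is active when both siRNAs agree (sum +2 or -2)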. Calls: active = both siRNAs shift cisplatin killing the same way; inactive = no consistent shift, or siRNA harmful alone.
In all, the deposit lists about 23,000 reagents; shown is a part drawn at random. Over the whole deposit, 455 (2%) are marked active. 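Active includes both protection and sensitisation; some change values fall well beyond the stated -50 to +50 range.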 Further read-outs or replicates are left out here. Reagent sequences are not shown. Not given: the amount of reagent.

For HPCAL4, the entry reads two-siRNA summed score (-2 to +2) = 0; inactive.
ZDHHC12 gave two-siRNA summed score (-2 to +2) = 0; inactive.
Knock-down of ALDH16A1 resulted in: two-siRNA summed score (-2 to +2) = 0; inactive.
ALG10 gave two-siRNA summed score (-2 to +2) = 0; inactive.
COG1 showed two-siRNA summed score (-2 to +2) = 0; inactive.
For IQCK, the entry reads two-siRNA summed score (-2 to +2) = 0; inactive.
Silencing of LOC392546 resulted in: two-siRNA summed score (-2 to +2) = 1; inactive.
For MELK, the values are two-siRNA summed score (-2 to +2) = 0; inactive.
Against ABCA5, the values are two-siRNA summed score (-2 to +2) = 0; inactive.
With knock-down of FJX1, the screen gave two-siRNA summed score (-2 to +2) = 0; inactive.
Depletion of ZNF197 resulted in: two-siRNA summed score (-2 to +2) = 0; inactive.
Against HIRIP3, the values are two-siRNA summed score (-2 to +2) = -2; active.
Depletion of NCAPH resulted in: two-siRNA summed score (-2 to +2) = 0; inactive.
Against STAM2, the entry reads two-siRNA summed score (-2 to +2) = 1; inactive.
Depletion of SH3BGRL resulted in: two-siRNA summed score (-2 to +2) = 0; inactive.
Against SMOX the deposit lists two-siRNA summed score (-2 to +2) = 0; inactive.
With knock-down of WSB2, the screen gave two-siRNA summed score (-2 to +2) = -2; active.
Against LRIT1 the deposit lists two-siRNA summed score (-2 to +2) = 0; inactive.
Silencing of NPIPB11 gave: two-siRNA summed score (-2 to +2) = -1; inactive.
Knock-down of LOC440954 gave: two-siRNA summed score (-2 to +2) = 0; inactive.
FBXO41 scored two-siRNA summed score (-2 to +2) = 0; inactive.

Quoted from the listing (3 entries):
COG1 — two-siRNA summed score (-2 to +2): 0; activity call: inactive
IQCK — two-siRNA summed score (-2 to +2): 0; activity call: inactive
LOC392546 — two-siRNA summed score (-2 to +2): 1; activity call: inactive
